Assay results from patent US20150366190A1, “Sustained Release Methods to Defeat Plant Pests” (BioGuard Technologies, Inc., priority 2014, published 2015).
At least one read-out could not be matched to a standard name with certainty.

Experiment: Rapid solvent extraction screen of coated specimens (water, 50% MeOH, 100% MeOH)
Assay type: physicochemical
Conditions: dissolved in ethanol, added to 2% latex solution
Experimental: Two experimental protocols were used to evaluate aqueous release and the extent of active retention. The first protocol was a rapid solvent extraction screen that involved dipping the coated specimens sequentially into vials containing 35 ml water for 1, 1, 5, and 10 minutes, then 50% MeOH for 10 minutes, and 100% MeOH for 24 hours. This protocol provided a rapid comparison of water soluble and entrained, but releasable, active fractions. The second protocol was to assess release rates based on simulated precipitation/rainfall conditions. This protocol involved maintaining test samples in successive 35 ml volumes of water for 24-hour periods for up to […], providing a cumulative daily release rate from dried films. This water extraction period was followed by a single extraction in 100% MeOH for 24 and 48 hrs to determine residual/entrained or solvent removable active. […]
The first step was to determine the solvent extractability of the non-latex formulations. This was based on readily soluble (water, 17 minutes), easily soluble (50% MeOH, 10 minutes), and relatively non-water soluble (100% MeOH, 24 hr) fractions of the formulations (FIG. 3). […]
The same solvent extraction protocol was used to evaluate 2 other fungicides (chlorothalonil and spiroxamine) with differing chemistries (water solubility and solvent solubility). These were evaluated using the same solvent extraction protocol. […]

Question: With CC(C1CC1)C(O)(Cn1cncn1)c1ccc(Cl)cc1 (stereo not shown) [cyproconazole] as the molecule, how does the overall recovery/extraction read?
Answer: Its overall recovery/extraction is 99%.
